Source: PubChem BioAssay AID743266 (National Center for Advancing Translational Sciences (NCATS), 2014)
The whole screen tested about 410,000 compounds, of which about 310 (0.076%) were called active. Inconclusive means that the source gave no clear call. Such entries were picked first, then a sample of the others. The call rests on the fitted dose curve; in most records, active means well fitted activation curve with a large enough effect; inconclusive means small, poorly fitted or top-dose-only effect, or another doubt; inactive means no such curve, though single readings can be large or run the other way. Potencies beside an inconclusive call are fits to weak or partial responses and may not hold up.

Protein sequences, listed by entry. Tags and fused reporters are not part of them. Lines headed by an entry give the natural chain unless they say otherwise; changes in a name come on top.
UniProt Q03431: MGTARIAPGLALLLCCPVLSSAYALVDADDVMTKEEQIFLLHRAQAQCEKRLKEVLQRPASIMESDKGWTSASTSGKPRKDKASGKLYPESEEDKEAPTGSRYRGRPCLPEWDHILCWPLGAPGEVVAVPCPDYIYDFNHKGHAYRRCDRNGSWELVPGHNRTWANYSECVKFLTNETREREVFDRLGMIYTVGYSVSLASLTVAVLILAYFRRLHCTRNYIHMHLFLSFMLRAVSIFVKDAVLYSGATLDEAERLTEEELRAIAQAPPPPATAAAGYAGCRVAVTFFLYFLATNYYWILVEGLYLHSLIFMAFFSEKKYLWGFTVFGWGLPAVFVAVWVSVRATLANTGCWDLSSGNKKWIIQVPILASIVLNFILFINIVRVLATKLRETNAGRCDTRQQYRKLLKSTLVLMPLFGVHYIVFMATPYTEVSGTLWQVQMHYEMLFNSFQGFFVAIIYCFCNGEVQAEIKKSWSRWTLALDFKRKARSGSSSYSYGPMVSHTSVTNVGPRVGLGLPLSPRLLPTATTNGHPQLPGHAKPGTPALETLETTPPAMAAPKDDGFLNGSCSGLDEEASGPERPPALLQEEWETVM

target: Parathyroid hormone/parathyroid hormone-related peptide receptor (Homo sapiens) (UniProt Q03431); test: qHTS for PTHR1 Agonists: Primary Screen; conditions: HEK293 GP2 PTHR1 cells, GloSensor cAMP luminescence, 1 h; activation: at 115 µM (top of the series) unless noted; series mostly up to 115 µM; further: nearly all actives have a fitted effect of over 55% in size
Procedure, shortened: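 HEK-293-derived GP2 cells expressing PTHR1 and a GloSensor cAMP reporter, 3,000/well, plated overnight, given luciferin plus IBMX (each 0.5 mM as added) for 1 h at 37 °C, then compound for 1 h at 37 °C. Luminescence was read after 15 min at room temperature.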
Potency means the concentration at half of the fitted maximal effect.

SMILES | activation | Potency | outcome
CCOC(=O)c1c(C)oc2nc(C)nc(NCCc3ccc(C)cc3)c12 | inconclusive: 32.2% [activator] |  | 
Cc1cccc(C)c1N(CC(=O)Nc1cccc(N(C)S(C)(=O)=O)c1)S(C)(=O)=O | inconclusive: 31.3% [activator] |  | 
C=C[C@@]1(C)CC(=O)[C@]2(O)[C@@]3(C)[C@@H](O)CCC(C)(C)[C@@H]3[C@H](OC(C)=O)[C@H](O)[C@@]2(C)O1 |  | inconclusive: 12.6 µM [activator, partial curve] | 
CN(C)c1ccc(/C=C2\N=C(c3ccc(Cl)c([N+](=O)[O-])c3)NC2=O)cc1 |  | inconclusive: 35.5 µM [activator, single point] | 
C/C(CC(=O)NC12CC3CC(CC(C3)C1)C2)=N\NC(=O)c1cnccn1 |  | inconclusive: 126 µM [activator, single point] | 
CCOc1cc(S(=O)(=O)N2CCC(Cc3ccccc3)CC2)c(OCC)cc1-n1cnnn1 |  | inconclusive: 35.5 µM [activator, single point] | 
CC(=O)CCc1ccc(OCC(O)CNCCOc2ccc(C)cc2)cc1 (stereo not given) |  |  | inactive
CCC(C)NC(=O)c1ccc(Cn2c(=O)c3cccn3c3cccnc32)cc1 (stereo not given) |  | inconclusive: 31.6 µM [activator, partial curve] | 
O=C(NCc1ccc(Cl)cc1)C1CCN(C(=O)c2cnn(-c3ccccc3)c2-n2cccc2)CC1 | inactive: -7.69% |  | 
Cc1ccc(-c2nnc(Nc3ccc(F)cc3)c3ccccc23)cc1S(=O)(=O)NC(C)C | inactive: -30.8% |  | 
COCCCn1c(=O)c2sccc2n(Cc2cccc(C)c2)c1=O | inactive: -15.7% |  | 
Cc1cc(C(N)=O)c2ccccc2n1 | inactive: -9.02% [at 57.5 µM] |  | 
CCOC(=O)C1=C(C)NC(=O)NC1/C=C/c1ccccc1 (stereo not given) |  | inconclusive: 7.94 µM [activator, full curve, poor fit] | 
COc1ccc(-n2nc3c(c2NC(=O)c2ccc(Br)o2)CS(=O)(=O)C3)cc1 | inconclusive: 17.8% [activator] |  | 
CC1=C/C(=C(/c2ccc(O)c(C)c2)c2ccccc2S(=O)(=O)O)C=CC1=O | inactive: -11.1% |  | 
C=CCN1CCCC1CNC(=O)c1cc2[nH]nnc2cc1OC (stereo not given) | inactive: -13.5% |  | 
Cc1cccc(C)c1NC(=O)CN(C)S(=O)(=O)c1ccc(-c2ccc(=O)[nH]n2)s1 |  | inconclusive: 6.31 µM [activator, full curve, poor fit] | 
Cc1cccc(CSc2ncc(Cl)c(C(=O)Nc3nnc(C)s3)n2)c1 |  | inconclusive: 100 µM [activator, single point] | 
CC(C)Oc1ccc(C(CC(=O)O)NC(=O)C2CCCCC2)cc1 (stereo not given) |  | inconclusive: 7.08 µM [activator, partial curve] | 
CCCN(CCC)C(=O)Cn1c(SCc2cccc(F)c2)nc2cccnc21 | inactive: -6.36% |  | 
O=C(NC1CCCc2c1cnn2-c1ccccc1F)c1ccncc1 (stereo not given) | inactive: -39.1% |  | 
COc1ccc(C(=O)Cn2c(=O)n3nc(CCn4nc(C)cc4C)nc3c3cc(OC)c(OC)cc32)cc1 |  | inconclusive: 35.5 µM [activator, full curve, poor fit] | 
CCOC(=O)c1c(-c2ccccc2)oc2ccc(OCc3ccc(C)cc3)cc12 |  | inconclusive: 50.1 µM [activator, partial curve, poor fit] | 

SMILES | activation | Potency | outcome
CCN(c1ccccc1)S(=O)(=O)c1ccc(C(=O)Nc2nnc(CSC)o2)cc1 |  |  | inactive
Cc1ccc(CNC(=O)CCCn2c(=O)c3ccccc3n(Cc3ccccc3Cl)c2=O)cc1 | inconclusive: 33.9% [activator] |  | 
C[C@@H]1COC(=O)[C@H](NC(=O)OCC2c3ccccc3-c3ccccc32)C/C=C\C[C@@H](CC(=O)N[C@@H](CO)Cc2ccccc2)C(=O)N1 | inactive: -29.1% |  | 
Cc1cc(C(=O)Nc2cccc(C(F)(F)F)c2)c2c(C)nn(-c3cccc(F)c3)c2n1 | inconclusive: -82.3% [activator] |  | 
O=C(CNC(=O)c1ccncc1)N/N=C/c1cccc([N+](=O)[O-])c1 | inconclusive: -2.65% [activator] |  | 
COc1cccc(C(=O)Nc2nc3nc(C)c(Cc4ccccc4)c(=O)n3[nH]2)c1 | inconclusive: 30.5% [activator] |  | 
CCOc1ccccc1OCCCC(=O)NNC(=O)c1ccc(F)cc1 |  | inconclusive: 0.767 µM [activator, full curve, poor fit] | 
Cc1ccc(NC(=O)CCC(=O)N2CCC(C)CC2)c([N+](=O)[O-])c1 |  | inconclusive: 89.1 µM [activator, partial curve, poor fit] | 
C/[N+]([O-])=C\c1ccc([N+](=O)[O-])o1 |  | inconclusive: 22.4 µM [activator, partial curve, poor fit] | 
Brc1cccc(CN2CCCCCC2)c1 | inactive: -2.37% |  | 
O=C1NC(=O)C2C1C(c1cccs1)NN2Cc1ccccc1 (stereo not given) | inconclusive: 6.03% [activator] |  | 
O=C1CCC(/C=C/c2ccccc2)=NN1Cc1ccccc1Cl | inactive: -12.5% |  | 
Nc1c(-c2ccccc2)cnn1-c1ccc(C(=O)O)cc1 | inconclusive: -69.7% [activator] [at 57.5 µM] |  | 
Cc1cccc(Nc2cc(C)nc3nc(-c4ccccc4)nn23)c1 |  | inconclusive: 0.767 µM [activator, full curve, poor fit] | 
Cc1ccc(CSc2nccc(-c3c(C)nc4ccccn34)n2)cc1 | inconclusive: -66.3% [activator] |  | 
COc1ccc(C)cc1S(=O)(=O)N(C)CC(=O)NCc1ccccn1 |  |  | inactive
COc1ccc(OC)c(/C(O)=C/C(=O)C(=O)Nc2ccccc2OC)c1 | inactive: -4.3% [at 57.5 µM] |  | 
COc1ccc(CNC(=O)c2cc(-c3ccc(OC)c(OC)c3)nc3n[nH]c(-c4ccc(C)cc4)c23)cc1 | inactive: 14.4% |  | 
O=C1[C@@H]2Cc3c([nH]c4ccccc34)C(c3cccc([N+](=O)[O-])c3)N2C(=O)CN1CCCO (stereo not given in full) | inactive: -0.122% |  | 
N#CC(=C=[N-])/C=C(\C(=O)c1ccccc1)[n+]1ccccc1 | inconclusive: 31.3% [activator] |  | 
COc1ccc(-n2ccn3c(CC(C)(C)CC(=O)O)nnc3c2=O)cc1 |  | inconclusive: 4.47 µM [activator, full curve, poor fit] | 
CCCN(CCC)C(=O)CSc1nc2n[nH]c(C)c2c(=N)n1-c1ccc(OCC)cc1 |  |  | inactive

Single entries from the list.
activation with CCOC(=O)c1c(C)oc2nc(C)nc(NCCc3ccc(C)cc3)c12 reads inconclusive: 32.2% [activator]
activation with COc1ccc(CNC(=O)c2cc(-c3ccc(OC)c(OC)c3)nc3n[nH]c(-c4ccc(C)cc4)c23)cc1 reads inactive: 14.4%
